Data reported in PMC7340540, “Crystal structures and calorimetry reveal catalytically relevant binding mode of coproporphyrin and coproheme in coproporphyrin ferrochelatase” (The FEBS journal, 2019).
Results are given in words; binding and its absence hold for the method and conditions named.

Sequences of proteins named here, by UniProt entry; tags and fusion partners are left off.
UniProt Q8Y565: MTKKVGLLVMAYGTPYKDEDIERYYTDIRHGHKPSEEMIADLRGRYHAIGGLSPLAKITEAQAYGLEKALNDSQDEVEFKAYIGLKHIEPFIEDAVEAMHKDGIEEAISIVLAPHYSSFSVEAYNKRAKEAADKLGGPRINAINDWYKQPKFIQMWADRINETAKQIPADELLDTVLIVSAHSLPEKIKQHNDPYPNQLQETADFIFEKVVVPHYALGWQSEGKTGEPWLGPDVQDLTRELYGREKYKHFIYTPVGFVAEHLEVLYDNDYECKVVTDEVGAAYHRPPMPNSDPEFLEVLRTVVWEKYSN

Biological target: coproporphyrin ferrochelatase from Listeria monocytogenes (LmCpfC) (Listeria monocytogenes) (UniProt Q8Y565)
Experiment: SEC-MALS; HPLC-SEC-MALS, Superdex 200 10/300 GL, 1 x PBS plus 200 mM NaCl, flow 0.75 mL/min, 50 μg protein injected; apo-, coproporphyrin III- and coproheme-LmCpfC gave identical elution profiles; both purified

binding: no binding (tested: 50 μg injected)
Substance: coproporphyrin ferrochelatase from Listeria monocytogenes (LmCpfC) (from UniProt Q8Y565 1-309) (enzyme)
